# Data source: PubChem BioAssay AID1053208 (Peter MacCallum Cancer Centre, 2014)
# Screen: 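Genes whose silencing cuts survival of bone tumour cells only with doxorubicin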 (primary screen)
# Cells: mouse osteosarcoma cells, early-passage culture from an engineered mouse model of fibroblastic bone tumour
# Reagents: siRNA pool against mouse genes, 40 nM
# Timing: about 120 h (48 h before drug, then 72 h with drug)
# Challenge: doxorubicin 100 nM for 72 h, roughly 30-40% inhibitory dose
# Measurement: 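Luminescent ATP signal taken as viability with or without 100 nM doxorubicin for 72 h; mean of two wells set against non-targeting siRNA and turned into robust z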
# Scale: viability z-score with doxorubicin and doxorubicin viability vs non-targeting: higher = more viable cells under doxorubicin; viability z-score without drug: higher = more viable cells with knock-down alone; z-score of drug to no-drug ratio: higher = less drug sensitisation by knock-down
# Hit rule: 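a pool counts as active when its viability z-score with doxorubicin is -2 or below and its z-score without drug lies between -2 and 2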
# Shown is an unselected part of about 17,000 reagents. 788 of all reagents (4.7%) count as active. 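Calls rest on z-score classes alone; an extra cut-off of viability at most 70% of control was not applied to them.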 Unmarked entries are inactive. The numbers tell different reagents against one gene apart.
target,pool no.,combined z-score class,viability z-score with doxorubicin,viability z-score without drug,z-score of drug to no-drug ratio,doxorubicin viability vs non-targeting
Nup107 (nucleoporin 107),1,low cell count with and without drug,-3.82,-3.2,-2.14,0.6
"Ugt2b1 (UDP glucuronosyltransferase 2 family, polypeptide B1)",1,no change with or without drug,1.35,-0.67,2.02,1.06
Nme6 (NME/NM23 nucleoside diphosphate kinase 6),1,no change with or without drug,0.11,1.35,-0.67,0.95
"Zdhhc15 (zinc finger, DHHC domain containing 15)",1,no change with or without drug,0.79,1.52,-0.11,1.01
N4bp2l1 (NEDD4 binding protein 2-like 1),1,no change with or without drug,-0.45,0.51,-0.67,0.9
"Tpt1 (tumor protein, translationally-controlled 1)",1,no change with or without drug,1.46,0.34,1.35,1.07
Rdx (radixin),1,no change with or without drug,-1.8,-1.35,-0.9,0.78
Mzb1 (marginal zone B and B1 cell-specific protein 1),1,no change with or without drug,-1.35,1.52,-2.14,0.82
Tmem123 (transmembrane protein 123),1,no change with or without drug,-1.57,-0.34,-1.35,0.8
Il27 (interleukin 27),1,no change with or without drug,0.34,1.18,-0.34,0.97
"Gpam (glycerol-3-phosphate acyltransferase, mitochondrial)",1,no change with or without drug,1.24,1.35,0.45,1.05
Grtp1 (GH regulated TBC protein 1),1,no change with or without drug,-0.22,-1.18,0.79,0.92
Lsm14a (LSM14A mRNA processing body assembly factor),1,no change with or without drug,1.12,0,1.24,1.04
Paxx (non-homologous end joining factor),1,no change with or without drug,0.56,0.17,0.56,0.99
Plg (plasminogen),1,no change with or without drug,0.34,-0.17,0.56,0.97
Pstpip2 (proline-serine-threonine phosphatase-interacting protein 2),1,no change with or without drug,1.12,0.51,0.9,1.04
Btbd16 (BTB domain containing 16),1,no change with or without drug,0,0.84,-0.45,0.94
Calm3 (calmodulin 3),1,no change with or without drug,0.22,0.67,-0.11,0.96
Zfp825 (zinc finger protein 825),1,no change with or without drug,0.11,0.51,-0.11,0.95
2010204K13Rik (RIKEN cDNA 2010204K13 gene),1,no change with or without drug,-1.01,0.34,-1.12,0.85
Cfap65 (cilia and flagella associated protein 65),1,no change with or without drug,0.22,0.67,-0.11,0.96
Smtnl1 (smoothelin-like 1),1,no change with or without drug,-1.24,-0.51,-0.9,0.83
Rflna (refilin A),1,no change with or without drug,0.45,0.51,0.22,0.98
Wfikkn2,1,no change with or without drug,-0.67,-0.51,-0.22,0.88
Kit (Kit proto-oncogene receptor tyrosine kinase),1,no change with or without drug,0,-1.85,1.57,0.94
Cadm2 (cell adhesion molecule 2),1,no change with or without drug,0,1.85,-1.01,0.94
"Tas2r118 (taste receptor, type 2, member 118)",1,no change with or without drug,0,-0.17,0.22,0.94
Hspb7 (heat shock protein family B (small) member 7),1,no change with or without drug,1.91,1.18,1.24,1.11
Prxl2b (peroxiredoxin like 2B),1,high cell count without drug only,1.24,2.19,-0.11,1.05
Acbd5 (acyl-Coenzyme A binding domain containing 5),1,no change with or without drug,-0.22,-0.17,0,0.92
"Fam161b (family with sequence similarity 161, member B)",1,no change with or without drug,0.34,1.85,-0.67,0.97
Cd209c (CD209c antigen),1,no change with or without drug,0.22,0.51,0,0.96
Evl (Ena-vasodilator stimulated phosphoprotein),1,no change with or without drug,-1.12,0.51,-1.35,0.84
Tmem184c (transmembrane protein 184C),1,no change with or without drug,-1.57,-0.84,-1.01,0.8
Tln1 (talin 1),1,no change with or without drug,-1.01,-1.52,0.11,0.85
Havcr2 (hepatitis A virus cellular receptor 2),1,no change with or without drug,0.45,0.84,0,0.98

Continued (6 carried over from the part before).
target,pool no.,combined z-score class,viability z-score with doxorubicin,viability z-score without drug,z-score of drug to no-drug ratio,doxorubicin viability vs non-targeting
"Fam161b (family with sequence similarity 161, member B)",1,no change with or without drug,0.34,1.85,-0.67,0.97
Cd209c (CD209c antigen),1,no change with or without drug,0.22,0.51,0,0.96
Evl (Ena-vasodilator stimulated phosphoprotein),1,no change with or without drug,-1.12,0.51,-1.35,0.84
Tmem184c (transmembrane protein 184C),1,no change with or without drug,-1.57,-0.84,-1.01,0.8
Tln1 (talin 1),1,no change with or without drug,-1.01,-1.52,0.11,0.85
Havcr2 (hepatitis A virus cellular receptor 2),1,no change with or without drug,0.45,0.84,0,0.98
Taf5l (TATA-box binding protein associated factor 5 like),1,no change with or without drug,-0.22,-0.17,0,0.92
Chchd1 (coiled-coil-helix-coiled-coil-helix domain containing 1),1,no change with or without drug,-0.45,0.51,-0.67,0.9
Alx3 (aristaless-like homeobox 3),1,high cell count with doxorubicin only,2.7,0.67,2.36,1.18
Ssh1 (slingshot protein phosphatase 1),1,no change with or without drug,-1.12,-0.34,-0.9,0.84
"Naa16 (N(alpha)-acetyltransferase 16, NatA auxiliary subunit)",1,no change with or without drug,-0.67,1.52,-1.46,0.88
"Gtf2f2 (general transcription factor IIF, polypeptide 2)",1,no change with or without drug,0.56,-0.84,1.35,0.99
Taar8b (trace amine-associated receptor 8B),1,no change with or without drug,1.8,-0.17,2.14,1.1
Itgax (integrin alpha X),1,no change with or without drug,0.67,-0.84,1.46,1
Wdr18 (WD repeat domain 18),1,no change with or without drug,-0.45,0.34,-0.56,0.9
Nisch (nischarin),1,no change with or without drug,-1.01,-0.84,-0.45,0.85
Dmrtc2,1,no change with or without drug,-0.22,0.84,-0.67,0.92
Dido1 (death inducer-obliterator 1),1,low cell count with and without drug,-2.59,-2.36,-1.12,0.71
Dido1 (death inducer-obliterator 1),2,no change with or without drug,0,0.84,-0.45,0.94
Pax5 (paired box 5),1,no change with or without drug,-0.22,0.34,-0.34,0.92
"Pou3f1 (POU domain, class 3, transcription factor 1)",1,no change with or without drug,1.35,1.01,0.79,1.06
Krt88 (keratin 88),1,no change with or without drug,-0.22,1.52,-1.12,0.92
S100a3 (S100 calcium binding protein A3),1,no change with or without drug,-0.79,-0.34,-0.45,0.87
Cox5a (cytochrome c oxidase subunit 5A),1,no change with or without drug,-0.22,-0.17,0,0.92
H3f3b (H3.3 histone B),1,no change with or without drug,-0.9,-0.51,-0.56,0.86
Rassf8,1,no change with or without drug,0,0.84,-0.45,0.94
Eogt (EGF domain specific O-linked N-acetylglucosamine transferase),1,no change with or without drug,-1.35,-0.17,-1.24,0.82
Cdh24 (cadherin-like 24),1,no change with or without drug,-0.22,-1.18,0.79,0.92
Efna4 (ephrin A4),1,no change with or without drug,-1.35,-0.17,-1.24,0.82
Fbln5 (fibulin 5),1,low cell count with doxorubicin only (active),-2.02,-0.34,-1.8,0.76
Cxcl15 (C-X-C motif chemokine ligand 15),1,no change with or without drug,1.91,0.34,1.8,1.11
Or5d38 (olfactory receptor family 5 subfamily D member 38),1,no change with or without drug,0,-1.18,1.01,0.94
Or1j21 (olfactory receptor family 1 subfamily J member 21),1,low cell count with doxorubicin only (active),-3.04,-1.52,-2.25,0.67
